Assay results: PMC9912922, “The LH–DH module of bacterial replicative helicases is the common binding site for DciA and other helicase loaders” (Acta Crystallographica. Section D, Structural Biology, 2023)
No constants are given. Whether binding was seen depends on the method and setting.

Protein sequences, listed by entry. Tags and fused reporters are not part of them.
UniProt P0ACB0: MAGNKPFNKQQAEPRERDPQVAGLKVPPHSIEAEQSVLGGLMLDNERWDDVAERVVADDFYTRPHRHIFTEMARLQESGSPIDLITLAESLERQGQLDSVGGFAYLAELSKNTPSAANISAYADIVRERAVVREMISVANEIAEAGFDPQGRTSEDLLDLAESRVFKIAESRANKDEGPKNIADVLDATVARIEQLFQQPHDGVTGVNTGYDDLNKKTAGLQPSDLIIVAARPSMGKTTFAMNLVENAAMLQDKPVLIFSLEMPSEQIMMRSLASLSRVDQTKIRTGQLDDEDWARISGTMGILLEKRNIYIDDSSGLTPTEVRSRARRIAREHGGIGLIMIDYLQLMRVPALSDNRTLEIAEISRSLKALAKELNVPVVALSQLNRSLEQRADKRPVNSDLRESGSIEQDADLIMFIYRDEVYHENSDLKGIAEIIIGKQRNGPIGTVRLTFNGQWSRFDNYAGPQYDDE

Biological target: EcDnaB, replicative helicase DnaB from Escherichia coli (Escherichia coli) (UniProt P0ACB0)
Assay: intrinsic fluorescence variation along a thermal ramp (Tycho NT.6 nano-DSF); 20 µM of each protein in 50 mM HEPES pH 7.5, 150 mM NaCl, 1 mM ATP; 350/330 nm ratio, 35 to 95°C, compared with the ratio predicted in the absence of interaction; three to five replicates; both purified

B1: EcDnaC^(53-end), EcDnaC with its NTD deleted (domain or fragment, UniProt P0AEF0 53-245)
chain: MQRTFNRSGIRPLHQNCSFENYRVECEGQMNALSKARQYVEEFDGNIASFIFSGKPGTGKNHLAAAICNELLLRGKSVLIITVADIMSAMKDTFRNSGTSEEQLLNDLSNVDLLVIDEIGVQTESKYEKVIINQIVDRRSSSKRPTGMLTNSNMEEMTKLLGERVMDRMRLGNSLWVIFNWDSYRSRVTGKEY
- binding: no binding (tested: 20 µM of each protein)
